Data as given in PubChem BioAssay AID743454 (Peter MacCallum Cancer Centre, 2014)
Screen: 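Knock-downs lowering viability or raising caspase 3/7 activity in vorinostat-treated resistant cells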 (primary screen). System: human HCT116-VR colon cancer cells, selected for vorinostat resistance. Reagent: siRNA pool against human genes, 40 nM siRNA pool. Time to read-out: vorinostat for 24 h, read-out about 72 h after transfection. Treatment: vorinostat at 2.5 µM final. Measurement: 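Cell viability by CellTiter-Fluor and caspase 3/7 activity by luminescence, each scaled to mock wells per plate, duplicates averaged, then robust z-scored over all plates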. Scale: viability robust z-score: higher = more viable cells than screen typical; caspase robust z-score: higher = more caspase 3/7 activity than screen typical. Hit rule: 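Hits are knock-downs in viability class RV1/RV2 or caspase class CA1/CA2, excluding ones that killed cells in the no-drug cell-count arm; hits then retested with single siRNAs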.
Here is a random part of about 18,000 reagents tested. 450 of them (2.5%) count as active. 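Single biological run; no consistent viability z cut-off exists, so the class columns, not z-scores, define the calls.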 Entries without a mark were called inactive.

no.	target gene	viability hit class	caspase hit class	viability robust z-score	caspase robust z-score
1	UGT1A8 (GeneID 54576)	no change	no change	-1.6	3.63
2	BRCC3 (GeneID 79184)	no change	no change	0.74	-0.98
3	EPB41 (GeneID 2035)	no change	no change	0.16	-0.49
4	SCAMP5 (GeneID 192683)	no change	no change	0.12	0.55
5	TRNAU1AP (GeneID 54952)	no change	no change	-1.32	-0.37
6	YRDC (GeneID 79693)	no change	no change	-0.83	2.45
7	OR1L4 (GeneID 254973)	no change	no change	-0.35	-0.51
8	SIRT3 (GeneID 23410)	no change	no change	-0.36	-0.51
9	CTNNA2 (GeneID 1496)	no change	no change	-0.18	-0.3
10	SNRPB (GeneID 6628)	no change	no change	-3.92	-0.14
11	SLC8A2 (GeneID 6543)	no change	no change	0.53	0.2
12	DEFB4A (GeneID 1673)	no change	no change	-1.38	0.21
13	MSX2 (GeneID 4488)	no change	no change	0.18	-0.12
14	GAS6 (GeneID 2621)	no change	no change	-1.94	1.44
15	NANOG (GeneID 79923)	no change	no change	-0.64	3.71
16	PRR22 (GeneID 163154)	no change	no change	0.34	0.48
17	NRBP2 (GeneID 340371)	no change	no change	1.64	4.19
18	RHBDD2 (GeneID 57414)	no change	no change	1.25	0.29
19	SP8 (GeneID 221833)	no change	no change	1.48	2.31
20	TPCN2 (GeneID 219931)	no change	no change	-2.1	0.47
21	TMEM74B (GeneID 55321)	no change	no change	1.52	-0.3
22	PFKFB4 (GeneID 5210)	no change	no change	-0.47	2.58
23	GNAI1 (GeneID 2770)	no change	no change	0.54	-0.25
24	RPS6KB1 (GeneID 6198)	no change	no change	-0.53	-1.46
25	AMMECR1 (GeneID 9949)	no change	no change	-1.62	0.44
26	ZNF2 (GeneID 7549)	no change	no change	0.98	-0.66
27	PMS1 (GeneID 5378)	no change	no change	0.88	-0.24
28	HGH1 (GeneID 51236)	no change	no change	-0.47	1.36
29	VRTN (GeneID 55237)	no change	no change	-1.66	2.86
30	TRIM60 (GeneID 166655)	no change	no change	0.72	-0.54
31	TLR6 (GeneID 10333)	no change	no change	-1.21	0.01
32	CLDN8 (GeneID 9073)	no change	no change	1	0.34
33	ZBTB26 (GeneID 57684)	no change	no change	0.87	-0.51
34	CRYZL1 (GeneID 9946)	no change	no change	0.38	-0.14
35	NUCKS1 (GeneID 64710)	no change	no change	0.56	-0.32
36	TEX29 (GeneID 121793)	no change	no change	-1.38	-0.8
37	ADAMTS13 (GeneID 11093)	no change	no change	0.22	-0.36
38	PPIL3 (GeneID 53938)	no change	no change	-0.26	-0.01
39	CYP8B1 (GeneID 1582)	no change	no change	0.32	-0.06
40	LIMK1 (GeneID 3984)	no change	no change	0.82	-0.01
41	RPS20 (GeneID 6224)	no change	no change	-6.38	-1.61
42	RPS6KA3 (GeneID 6197)	no change	no change	0.42	0.05
43	OR4C45 (GeneID 403257)	no change	no change	-0.02	-0.72
44	NUCLEOLIN (GeneID 4691)	no change	no change	-0.85	0.97
45	ATMIN (GeneID 23300)	no change	no change	-0.37	-1.51
46	FGD3 (GeneID 89846)	no change	no change	-0.76	0.55
47	PCSK9 (GeneID 255738)	no change	no change	-0.7	0.52
48	F8A3 (GeneID 474384)	no change	no change	-1.08	3.1
49	FXR1 (GeneID 8087)	no change	no change	0.89	-0.62
50	OR4A5 (GeneID 81318)	no change	no change	0.06	-0.9
51	PRMT1 (GeneID 3276)	no change	no change	-1.22	1.33
52	ZNF366 (GeneID 167465)	no change	no change	-1.47	1.17
53	ZNF689 (GeneID 115509)	no change	no change	0.83	2.45
54	GDAP2 (GeneID 54834)	no change	no change	0.12	1
55	FGF10 (GeneID 2255)	no change	no change	-0.22	3.66
56	SYNPO (GeneID 11346)	no change	no change	-1.25	1.25
57	PLA2G10 (GeneID 8399)	no change	no change	1.13	-0.82

Copied from the list.
SCAMP5 (GeneID 192683), caspase robust z-score = 0.55
Entry of EPB41 (GeneID 2035) in “caspase robust z-score”: -0.49
For “viability robust z-score”, GNAI1 (GeneID 2770) reads 0.54
TRIM60 (GeneID 166655), viability robust z-score: 0.72
For “viability robust z-score”, GDAP2 (GeneID 54834) reads 0.12
CLDN8 (GeneID 9073), caspase hit class → no change
